# This is one part of the list.
# B1: his-Lectin-24A (Drosophila melanogaster) (protein)
# chain: MFRLSVLVLNLLLVSHEFSAGTAKIEIQPLPALCNGYCFPTLKPVMEYVAIHQDKWNTCTEILANEARKDQIQLNIQLDALKADVSNIKASQLSKDEKLDRMEREQFAMHESLETINRYLTVKLDRTKLQLEAIKNTMDYMKAQMDGYFSAINGVQCLQPGFEKIGDRYFYIEEDVELNWLDAQAKCRRMGGHLASIKTKQEFDAIVEKLDDSKSYFLGVNENTKTGDFVSAASGKSCLYHEWGPGEPHHNNDQERCVSILRKLMHVGNCTYEKRFICQYGI
# Legend:
# Experiment in all cases: glycan array binding signal (z-score within array); higher = stronger binding
# Conditions in all cases: glycan notation: IUPAC condensed, linker removed
# [1] = target: Neu5Ac(a2-3)Gal(b1-4)GlcNAc(b1-3)Gal(b1-4)GlcNAc(b1-3)Gal(b1-4)GlcNAc
# How it was run: (§1)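 Arrays were curated from the Consortium for Functional Glycomics database, 3228 in total, and kept only where the protein sequence was available. Binding is expressed as a within-array Z-score. This score was averaged across arrays of the same protein sequence at different concentrations or buffers and across linkers, and negative values can be read as non-binding.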
# [2] = target: Neu5Ac(a2-3)Gal(b1-4)GlcNAc(b1-3)Gal(b1-4)GlcNAc(b1-3)Gal(b1-4)GlcNAc(b1-2)Man(a1-3)[Neu5Ac(a2-3)Gal(b1-4)GlcNAc(b1-3)Gal(b1-4)GlcNAc(b1-3)Gal(b1-4)GlcNAc(b1-2)Man(a1-6)]GalNAc
# How it was run: as §1
# [3] = target: Neu5Ac(a2-3)Gal(b1-4)GlcNAc(b1-3)Gal(b1-4)GlcNAc(b1-3)GalNAc
# How it was run: as §1
# [4] = target: Neu5Ac(a2-3)Gal(b1-4)GlcNAc(b1-3)Gal(b1-4)GlcNAc(b1-3)[Neu5Ac(a2-3)Gal(b1-4)GlcNAc(b1-3)Gal(b1-4)GlcNAc(b1-6)]GalNAc
# How it was run: as §1
# [5] = target: Neu5Ac(a2-3)Gal(b1-4)GlcNAc(b1-3)Gal(b1-4)GlcNAc(b1-6)[Gal(b1-3)]GalNAc
# How it was run: as §1
# [6] = target: Neu5Ac(a2-3)Gal(b1-4)GlcNAc(b1-3)Gal(b1-4)[Fuc(a1-3)]GlcNAc
# How it was run: as §1
# [7] = target: Neu5Ac(a2-3)Gal(b1-4)GlcNAc(b1-3)GalNAc
# How it was run: as §1
# [8] = target: Neu5Ac(a2-3)Gal(b1-4)GlcNAc(b1-3)[Neu5Ac(a2-3)Gal(b1-4)GlcNAc(b1-6)]GalNAc
# How it was run: as §1
# [9] = target: Neu5Ac(a2-3)Gal(b1-4)GlcNAc(b1-6)GalNAc
# How it was run: as §1
# [10] = target: Neu5Ac(a2-3)Gal(b1-4)GlcNAc(b1-6)[Gal(b1-3)]GalNAc
# How it was run: as §1
# [11] = target: Neu5Ac(a2-3)Gal(b1-4)GlcNAc(b1-6)[Neu5Ac(a2-3)Gal(b1-3)]GalNAc
# How it was run: as §1
# [12] = target: Neu5Ac(a2-3)Gal(b1-4)GlcNAc6S
# How it was run: as §1
# [13] = target: Neu5Ac(a2-3)Gal(b1-4)[Fuc(a1-3)]GlcNAc
# How it was run: as §1
# [14] = target: Neu5Ac(a2-3)Gal(b1-4)[Fuc(a1-3)]GlcNAc(b1-2)Man
# How it was run: as §1
# [15] = target: Neu5Ac(a2-3)Gal(b1-4)[Fuc(a1-3)]GlcNAc(b1-3)Gal
# How it was run: as §1
# [16] = target: Neu5Ac(a2-3)Gal(b1-4)[Fuc(a1-3)]GlcNAc(b1-3)Gal(b1-4)GlcNAc
# How it was run: as §1
# [17] = target: Neu5Ac(a2-3)Gal(b1-4)[Fuc(a1-3)]GlcNAc(b1-3)Gal(b1-4)[Fuc(a1-3)]GlcNAc(b1-3)Gal(b1-4)[Fuc(a1-3)]GlcNAc
# How it was run: as §1
# [18] = target: Neu5Ac(a2-3)Gal(b1-4)[Fuc(a1-3)]GlcNAc(b1-3)GalNAc
# How it was run: as §1
# [19] = target: Neu5Ac(a2-3)Gal(b1-4)[Fuc(a1-3)]GlcNAc(b1-6)[Gal(b1-3)]GalNAc
# How it was run: as §1
# [20] = target: Neu5Ac(a2-3)Gal(b1-4)[Fuc(a1-3)]GlcNAc(b1-6)[Neu5Ac(a2-3)Gal(b1-3)]GalNAc
# How it was run: as §1
# [21] = target: Neu5Ac(a2-3)Gal(b1-4)[Fuc(a1-3)]GlcNAc6S
# How it was run: as §1
# [22] = target: Neu5Ac(a2-3)Gal6S(b1-4)GlcNAc
# How it was run: as §1
# [23] = target: Neu5Ac(a2-3)Gal6S(b1-4)[Fuc(a1-3)]GlcNAc
# How it was run: as §1
# Neu5Ac(a2-3)GalNAc = target: Neu5Ac(a2-3)GalNAc
# How it was run: as §1
# [24] = target: Neu5Ac(a2-3)GalNAc(b1-4)GlcNAc
# How it was run: as §1
# [25] = target: Neu5Ac(a2-3)[GalNAc(b1-4)]Gal(b1-4)Glc
# How it was run: as §1
# [26] = target: Neu5Ac(a2-3)[GalNAc(b1-4)]Gal(b1-4)GlcNAc
# How it was run: as §1
# [27] = target: Neu5Ac(a2-3)[GalNAc(b1-4)]Gal(b1-4)GlcNAc(b1-3)GalNAc
# How it was run: as §1
# [28] = target: Neu5Ac(a2-3)[Neu5Ac(a2-6)]GalNAc
# How it was run: as §1
# Neu5Ac(a2-6)Gal = target: Neu5Ac(a2-6)Gal
# How it was run: as §1
# [29] = target: Neu5Ac(a2-6)Gal(b1-3)GlcNAc(b1-3)[Gal(b1-4)GlcNAc(b1-6)]Gal(b1-4)Glc
# How it was run: as §1
# Neu5Ac(a2-6)Gal(b1-4)Glc = target: Neu5Ac(a2-6)Gal(b1-4)Glc
# How it was run: as §1
# [30] = target: Neu5Ac(a2-6)Gal(b1-4)GlcNAc
# How it was run: as §1
# [31] = target: Neu5Ac(a2-6)Gal(b1-4)GlcNAc(b1-2)Man
# How it was run: as §1
# [32] = target: Neu5Ac(a2-6)Gal(b1-4)GlcNAc(b1-2)Man(a1-3)Man(b1-4)GlcNAc(b1-4)GlcNAc
# How it was run: as §1
# [33] = target: Neu5Ac(a2-6)Gal(b1-4)GlcNAc(b1-2)Man(a1-3)[Gal(b1-4)GlcNAc(b1-2)Man(a1-6)]Man(b1-4)GlcNAc(b1-4)GlcNAc
# How it was run: as §1
# [34] = target: Neu5Ac(a2-6)Gal(b1-4)GlcNAc(b1-2)Man(a1-3)[GlcNAc(b1-2)Man(a1-6)]Man(b1-4)GlcNAc(b1-4)GlcNAc
# How it was run: as §1
# [35] = target: Neu5Ac(a2-6)Gal(b1-4)GlcNAc(b1-2)Man(a1-3)[GlcNAc(b1-4)][Neu5Ac(a2-6)Gal(b1-4)GlcNAc(b1-2)Man(a1-6)]Man(b1-4)GlcNAc(b1-4)GlcNAc
# How it was run: as §1
binder,measurement,setting,value
B1,glycan array binding signal (z-score),[1],0.04
same,glycan array binding signal (z-score),[2],1.14
same,glycan array binding signal (z-score),[3],0.444
same,glycan array binding signal (z-score),[4],0.339
same,glycan array binding signal (z-score),[5],-1.11
same,glycan array binding signal (z-score),[6],0.051
same,glycan array binding signal (z-score),[7],-0.018
same,glycan array binding signal (z-score),[8],1.34
same,glycan array binding signal (z-score),[9],-0.73
same,glycan array binding signal (z-score),[10],1.28
same,glycan array binding signal (z-score),[11],-0.127
same,glycan array binding signal (z-score),[12],-0.821
same,glycan array binding signal (z-score),[13],-0.035
same,glycan array binding signal (z-score),[14],-0.996
same,glycan array binding signal (z-score),[15],-0.485
same,glycan array binding signal (z-score),[16],0.1
same,glycan array binding signal (z-score),[17],-0.945
same,glycan array binding signal (z-score),[18],-0.643
same,glycan array binding signal (z-score),[19],-1.09
same,glycan array binding signal (z-score),[20],1.76
same,glycan array binding signal (z-score),[21],0.111
same,glycan array binding signal (z-score),[22],0.493
same,glycan array binding signal (z-score),[23],-1.28
same,glycan array binding signal (z-score),Neu5Ac(a2-3)GalNAc,-1.32
same,glycan array binding signal (z-score),[24],1.8
same,glycan array binding signal (z-score),[25],-0.19
same,glycan array binding signal (z-score),[26],0.42
same,glycan array binding signal (z-score),[27],0.615
same,glycan array binding signal (z-score),[28],0.765
same,glycan array binding signal (z-score),Neu5Ac(a2-6)Gal,-0.598
same,glycan array binding signal (z-score),[29],-1.67
same,glycan array binding signal (z-score),Neu5Ac(a2-6)Gal(b1-4)Glc,-0.832
same,glycan array binding signal (z-score),[30],-0.848
same,glycan array binding signal (z-score),[31],-0.44
same,glycan array binding signal (z-score),[32],-0.861
same,glycan array binding signal (z-score),[33],-0.519
same,glycan array binding signal (z-score),[34],1.13
same,glycan array binding signal (z-score),[35],-1.2

# Another view of some results above:
binder	measurement	setting	value
B1	glycan array binding signal (z-score)	[1]	0.04
same	glycan array binding signal (z-score)	[2]	1.14
same	glycan array binding signal (z-score)	[3]	0.444

# Reference: the supplement of paper PMC8728848
